US8673289B2, “Attenuated uracil auxotroph of an apicomplexan and use thereof” (priority 2007, dated 2014)
At least one structure is not confirmed: it was looked up by name or label, or the drawing left a doubt.

Test system: cps1-1 and cps2-1
Assay: drug sensitivity of cps1-1 and cps2-1 in replication and plaque assays
Assay type: cell-based, Toxoplasma gondii
Details: 1 μM
From the text: It is believed that the single recombination into the CPSII locus only partially disrupted expression of CPSII activity in cps1 and cps2. […] Cps1 and cps2 were thus utilized as the parent strain background in which to select a more highly attenuated pyrimidine auxotroph mutant. Both the cps1 and cps2 mutants express a TK allele which was inserted into the CPSII locus. […] Then, approximately 1-2×10^5 cps1 or cps2 parasites was inoculated into a 25 cm^2 HFF flask and selected negatively in the presence of 10 μM ganciclovir plus 200 μM uracil. This is 20 times the dose of ganciclovir necessary to completely block plaque formation of these mutants. […] The parasites which were growing in ganciclovir plus uracil were subcloned in ganciclovir and uracil (same conditions) and individual clones, cps1-1 and cps2-1, were identified from each parent, respectively, for further analysis. The cps1-1 and cps2-1 subclones were first tested for their sensitivity to pyrimethamine. The theory of negative selective in only ganciclovir is that a mutant that disrupts expression of the TK allele should simultaneously acquire sensitivity to pyrimethamine due to loss of the expression of the fused trifunctional DHFR-TK-TS transgene(s) inserted into the CPSII locus of cps1 and cps2.

CCc1nc(N)nc(N)c1-c1ccc(Cl)cc1 [pyrimethamine]
sensitivity of cps1-1 and cps2-1 to pyrimethamine: gain of sensitivity
